Laboratory results published in the supplement of paper PMC10849652.
This is one part of the list.

The chains behind the UniProt entries cited, without tags or fusion partners. Where a name states a change or a piece, a line headed by the entry shows the natural chain unless it says otherwise.
UniProt Q96DE9: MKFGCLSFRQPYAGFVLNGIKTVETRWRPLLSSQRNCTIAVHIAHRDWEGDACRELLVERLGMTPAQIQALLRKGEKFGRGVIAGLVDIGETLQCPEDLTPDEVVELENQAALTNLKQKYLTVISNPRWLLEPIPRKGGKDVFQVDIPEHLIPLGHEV
UniProt P52943: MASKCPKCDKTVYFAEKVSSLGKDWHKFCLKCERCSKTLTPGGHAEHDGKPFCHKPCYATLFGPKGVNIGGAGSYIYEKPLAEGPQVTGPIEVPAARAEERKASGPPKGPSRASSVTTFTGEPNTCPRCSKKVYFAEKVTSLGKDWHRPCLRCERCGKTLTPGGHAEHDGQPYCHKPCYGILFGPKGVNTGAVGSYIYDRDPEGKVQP
UniProt O60931: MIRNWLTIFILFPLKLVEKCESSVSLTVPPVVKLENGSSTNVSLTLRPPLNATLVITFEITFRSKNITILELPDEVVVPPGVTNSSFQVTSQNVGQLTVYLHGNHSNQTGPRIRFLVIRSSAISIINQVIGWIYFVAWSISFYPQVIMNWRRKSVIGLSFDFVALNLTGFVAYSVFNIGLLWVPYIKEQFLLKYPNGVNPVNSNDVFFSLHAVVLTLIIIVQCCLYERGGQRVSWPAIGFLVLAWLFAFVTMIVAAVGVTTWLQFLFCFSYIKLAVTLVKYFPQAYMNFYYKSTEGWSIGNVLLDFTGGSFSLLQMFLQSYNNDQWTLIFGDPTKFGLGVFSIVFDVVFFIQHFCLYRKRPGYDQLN
UniProt P08311: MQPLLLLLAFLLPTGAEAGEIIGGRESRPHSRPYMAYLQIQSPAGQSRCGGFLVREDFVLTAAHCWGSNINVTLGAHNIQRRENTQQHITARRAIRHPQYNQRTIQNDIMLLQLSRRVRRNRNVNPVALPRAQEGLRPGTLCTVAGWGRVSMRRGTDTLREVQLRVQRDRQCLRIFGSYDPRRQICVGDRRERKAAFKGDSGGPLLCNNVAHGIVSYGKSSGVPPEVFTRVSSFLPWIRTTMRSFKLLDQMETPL
UniProt Q9NXE8: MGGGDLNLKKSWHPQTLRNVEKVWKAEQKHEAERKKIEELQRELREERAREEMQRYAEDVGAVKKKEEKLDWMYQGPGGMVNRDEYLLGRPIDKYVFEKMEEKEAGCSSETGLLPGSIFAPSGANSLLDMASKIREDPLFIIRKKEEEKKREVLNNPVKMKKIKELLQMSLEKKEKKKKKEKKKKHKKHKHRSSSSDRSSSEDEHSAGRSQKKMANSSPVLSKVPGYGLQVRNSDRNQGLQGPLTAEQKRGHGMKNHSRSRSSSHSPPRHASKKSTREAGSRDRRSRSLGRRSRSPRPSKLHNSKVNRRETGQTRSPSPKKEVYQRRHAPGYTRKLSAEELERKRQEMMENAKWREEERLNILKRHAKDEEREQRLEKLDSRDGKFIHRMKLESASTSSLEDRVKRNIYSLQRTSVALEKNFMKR
UniProt O75575: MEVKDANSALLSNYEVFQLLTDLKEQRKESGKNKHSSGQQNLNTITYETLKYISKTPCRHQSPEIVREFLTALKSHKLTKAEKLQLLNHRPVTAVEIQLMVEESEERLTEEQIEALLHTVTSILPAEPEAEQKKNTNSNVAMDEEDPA
UniProt P48729: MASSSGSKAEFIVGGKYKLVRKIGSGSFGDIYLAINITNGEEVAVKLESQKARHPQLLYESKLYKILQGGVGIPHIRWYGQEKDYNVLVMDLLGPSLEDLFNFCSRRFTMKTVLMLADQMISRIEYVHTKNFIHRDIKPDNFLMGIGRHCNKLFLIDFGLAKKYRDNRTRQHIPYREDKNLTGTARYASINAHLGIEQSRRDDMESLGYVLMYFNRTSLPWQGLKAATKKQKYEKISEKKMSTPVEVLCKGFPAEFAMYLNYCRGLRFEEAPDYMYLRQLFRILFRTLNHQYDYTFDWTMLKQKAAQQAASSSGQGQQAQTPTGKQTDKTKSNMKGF
UniProt Q9BQA9: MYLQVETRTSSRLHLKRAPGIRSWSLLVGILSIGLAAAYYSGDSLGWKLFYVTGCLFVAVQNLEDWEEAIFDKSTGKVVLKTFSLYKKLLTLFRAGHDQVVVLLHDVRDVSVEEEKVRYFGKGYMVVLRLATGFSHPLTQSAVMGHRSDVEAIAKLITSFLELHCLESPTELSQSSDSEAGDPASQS
UniProt Q96HD1: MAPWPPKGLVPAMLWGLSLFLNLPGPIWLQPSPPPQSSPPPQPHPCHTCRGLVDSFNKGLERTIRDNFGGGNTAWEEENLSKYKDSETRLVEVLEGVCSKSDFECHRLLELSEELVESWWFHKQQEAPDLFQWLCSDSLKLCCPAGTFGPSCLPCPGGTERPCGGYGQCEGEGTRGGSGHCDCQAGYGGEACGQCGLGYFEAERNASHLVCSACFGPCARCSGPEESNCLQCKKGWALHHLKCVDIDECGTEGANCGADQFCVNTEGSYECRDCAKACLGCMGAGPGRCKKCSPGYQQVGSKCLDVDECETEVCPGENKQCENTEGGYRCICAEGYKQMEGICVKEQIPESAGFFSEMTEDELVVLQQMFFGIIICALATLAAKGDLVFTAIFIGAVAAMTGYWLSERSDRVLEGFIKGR
UniProt Q9GZU7: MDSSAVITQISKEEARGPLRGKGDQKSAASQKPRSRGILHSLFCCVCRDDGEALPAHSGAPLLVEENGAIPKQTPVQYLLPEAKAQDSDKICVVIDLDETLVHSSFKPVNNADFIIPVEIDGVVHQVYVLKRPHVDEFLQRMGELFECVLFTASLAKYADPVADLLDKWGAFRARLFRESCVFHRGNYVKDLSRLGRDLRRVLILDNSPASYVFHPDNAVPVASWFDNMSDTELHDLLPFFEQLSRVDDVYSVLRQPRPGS
UniProt H7BZ55: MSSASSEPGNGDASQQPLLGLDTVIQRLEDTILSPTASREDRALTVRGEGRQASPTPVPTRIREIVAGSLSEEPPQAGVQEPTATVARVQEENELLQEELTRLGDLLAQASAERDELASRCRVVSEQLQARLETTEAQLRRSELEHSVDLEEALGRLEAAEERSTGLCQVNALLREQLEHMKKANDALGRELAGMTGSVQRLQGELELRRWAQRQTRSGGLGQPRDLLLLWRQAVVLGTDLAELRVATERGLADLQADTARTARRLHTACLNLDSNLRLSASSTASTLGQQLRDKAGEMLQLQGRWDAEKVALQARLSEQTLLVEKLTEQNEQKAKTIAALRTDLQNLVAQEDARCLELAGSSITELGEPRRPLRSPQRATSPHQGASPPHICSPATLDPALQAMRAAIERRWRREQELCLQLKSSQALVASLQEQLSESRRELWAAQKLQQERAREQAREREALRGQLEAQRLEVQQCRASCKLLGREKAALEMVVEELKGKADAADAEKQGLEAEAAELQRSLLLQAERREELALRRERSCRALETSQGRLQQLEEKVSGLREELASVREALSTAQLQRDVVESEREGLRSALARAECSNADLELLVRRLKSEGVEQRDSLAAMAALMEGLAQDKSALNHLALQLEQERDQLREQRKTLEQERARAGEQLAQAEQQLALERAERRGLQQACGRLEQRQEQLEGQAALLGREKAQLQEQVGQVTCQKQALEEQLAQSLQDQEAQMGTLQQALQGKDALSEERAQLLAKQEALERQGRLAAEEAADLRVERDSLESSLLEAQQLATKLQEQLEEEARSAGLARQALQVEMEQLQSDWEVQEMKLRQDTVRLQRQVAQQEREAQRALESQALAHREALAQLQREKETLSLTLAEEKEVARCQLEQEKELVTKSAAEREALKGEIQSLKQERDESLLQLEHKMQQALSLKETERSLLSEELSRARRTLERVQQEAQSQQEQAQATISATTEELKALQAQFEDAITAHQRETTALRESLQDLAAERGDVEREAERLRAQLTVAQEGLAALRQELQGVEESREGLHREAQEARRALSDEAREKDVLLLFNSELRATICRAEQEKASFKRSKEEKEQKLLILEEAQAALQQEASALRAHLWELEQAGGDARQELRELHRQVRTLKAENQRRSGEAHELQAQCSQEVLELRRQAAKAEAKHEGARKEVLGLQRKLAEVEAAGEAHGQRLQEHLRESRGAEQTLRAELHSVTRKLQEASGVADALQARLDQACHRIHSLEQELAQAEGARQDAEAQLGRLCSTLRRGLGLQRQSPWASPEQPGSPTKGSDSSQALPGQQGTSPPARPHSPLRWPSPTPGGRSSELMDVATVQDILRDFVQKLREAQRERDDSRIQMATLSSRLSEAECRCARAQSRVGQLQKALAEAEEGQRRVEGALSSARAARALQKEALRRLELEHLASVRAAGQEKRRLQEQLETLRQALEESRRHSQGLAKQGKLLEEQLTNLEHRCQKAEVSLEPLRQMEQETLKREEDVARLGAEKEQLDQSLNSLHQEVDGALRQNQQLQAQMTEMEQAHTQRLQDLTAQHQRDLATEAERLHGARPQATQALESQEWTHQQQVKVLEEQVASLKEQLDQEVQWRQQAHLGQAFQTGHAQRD
UniProt O95715: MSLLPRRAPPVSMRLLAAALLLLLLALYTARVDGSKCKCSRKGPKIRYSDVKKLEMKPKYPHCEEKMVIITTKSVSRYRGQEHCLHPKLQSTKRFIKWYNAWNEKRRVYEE

Tests used:
Experiment in all cases: log2 fold change, soluble protein after heating vs DMSO (PISA); higher = thermal stabilisation; K562 lysate, 10 uM; active = over 0.2 and 3.5 SD of the protein, either way, in both replicates (recomputed)
[1] = compound: CN1CC[C@H](c2c(O)cc(O)c3c(=O)cc(-c4ccccc4Cl)oc23)[C@H](O)C1 [alvocidib]
Method in brief: (§1)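 Pellets of K562 cells were dounce-homogenised in PBS pH 7.4 with 1 mM MgCl2, and the crude extract was held at 1 mg/mL protein for a 30 min treatment with 10 μM compound. Aliquots were heated for 3 min over 48°C-58°C and pooled before NP-40 was added to 0.5% at 4°C. The supernatant from 21,000xg for 90 min was quantified by TMTpro 16plex LC-MS/MS with channel sums equalised. Values are reported from duplicates as log-two fold change in thermal stability relative to solvent controls.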

[2] = compound: CN1CCc2c(c3ccccc3n2Cc2ccc(C(=O)NO)cc2)C1 [Tubastatin A]
Method in brief: as §1

[3] = compound: CNC(=O)c1ccc(Nc2ncc(C(F)(F)F)c(NCc3nccnc3N(C)S(C)(=O)=O)n2)cc1 [defactinib]
Method in brief: as §1

[4] = compound: CNc1nc(-c2ccc3c(N)n[nH]c3c2)cc(N2C[C@@H](C(=O)NC3CCCCC3)CC[C@H]2C)n1
Method in brief: as §1

[5] = compound: COc1cc(Nc2ncc3c(n2)-c2ccc(Cl)cc2C(c2c(F)cccc2OC)=NC3)ccc1C(=O)O [alisertib]
Method in brief: as §1

[6] = compound: COc1cc2nc(-c3cc(F)ccc3O)nc(N[C@@H]3CNC[C@H]3C(C)(C)O)c2cc1OC
Method in brief: as §1

[7] = compound: COc1cc2ncnc(Nc3ccc(F)c(Cl)c3)c2cc1OCCCN1CCOCC1 [gefitinib]
Method in brief: as §1

[8] = compound: CS(=O)(=O)CCNCc1ccc(-c2ccc3ncnc(Nc4ccc(OCc5cccc(F)c5)c(Cl)c4)c3c2)o1 [lapatinib]
Method in brief: as §1

[9] = compound: CS(=O)(=O)N1CCN(Cc2cc3nc(-c4cccc5[nH]ncc45)nc(N4CCOCC4)c3s2)CC1 [pictilisib]
Method in brief: as §1

[10] = compound: C[C@@H](Oc1cc(-c2cnn(C3CCNCC3)c2)cnc1N)c1c(Cl)ccc(F)c1Cl [crizotinib]
Method in brief: as §1

[11] = compound: C[C@H](C1=CC=C(C=C1)C(=O)NC2=C3C=CNC3=NC=C2)N
Method in brief: as §1

[12] = compound: C[C@H](Nc1ncnc2nc[nH]c12)c1cc2cccc(Cl)c2c(=O)n1-c1ccccc1 [duvelisib]
Method in brief: as §1

[13] = compound: Cc1cc(Nc2cc(CN3CCOCC3)c3nc(C)c(Cc4ccc(Cl)cc4F)n3n2)n[nH]1 [gandotinib]
Method in brief: as §1

[14] = compound: Cc1ccc(-n2nc(C(C)(C)C)cc2NC(=O)Nc2ccc(OCCN3CCOCC3)c3ccccc23)cc1 [doramapimod]
Method in brief: as §1

[15] = compound: Cc1ccc(NC(=O)c2ccc(CN3CC[C@H](N(C)C)C3)c(C(F)(F)F)c2)cc1Nc1nccc(-c2cncnc2)n1 [bafetinib]
Method in brief: as §1

[16] = compound: Cc1cccc(CC(=O)N2CCc3c2ccc(-c2cn(C)c4ncnc(N)c24)c3F)n1
Method in brief: as §1

[17] = compound: CNC(=O)C1=CC=CC=C1NC2=NC(=NC=C2Cl)NC3=C(C=C(C=C3)N4CCOCC4)OC
Method in brief: as §1

[18] = compound: COC(=O)N[C@@H](C)CNc1nccc(-c2cn(C(C)C)nc2-c2cc(Cl)cc(NS(C)(=O)=O)c2F)n1 [encorafenib]
Method in brief: as §1

[19] = compound: COC(=O)[C@H](CCSC)NC(=O)C1=C(C=C(C=C1)NC[C@H](CS)N)C2=CC=CC=C2
Method in brief: as §1

[20] = compound: Cc1cc(Nc2cc(N3CCN(C)CC3)nc(Sc3ccc(NC(=O)C4CC4)cc3)n2)n[nH]1 [tozasertib]
Method in brief: as §1

Measured: log2 fold change

CXorf40B (UniProt Q96DE9)
inactive: [1] 0.011 | [2] 0.234 | [3] 0.102 | [4] 0.048 | [5] 0.008 | [6] -0.053 | [7] 0.096 | [8] 0.018 | [9] 0.034 | [10] 0.043 | [11] -0.079 | [12] 0.048 | [13] -0.045 | [14] -0.097 | [15] -0.083 | [16] -0.009

CRIP2 isoform 2 (UniProt P52943)
inactive: [1] 0.161 | [2] -0.035 | [17] 0 | [4] -0.116 | [5] 0.143 | [6] 0.04 | [7] -0.132 | [8] 0.011 | [9] -0.069 | [10] -0.022 | [11] 0.053 | [12] -0.112 | [13] -0.012 | [14] -0.103 | [15] -0.021 | [16] -0.107

CTNS isoform 2 (UniProt O60931)
inactive: [1] -0.322 | [2] -0.135 | [3] 0.084 | [4] 0.358 | [18] -0.02 | [19] -0.157 | [9] -0.093 | [10] 0 | [11] -0.314 | [12] -0.141 | [13] 0.348 | [20] 0.154 | [14] 0.106 | [15] 0.01 | [16] 0.206

CTSG (UniProt P08311)
inactive: [1] -0.249 | [2] 0.068 | [17] -0.121 | [4] 0.258 | [5] 0.108 | [7] -0.081 | [10] 0.068 | [11] -0.546 | [12] -0.109 | [13] 0.26 | [14] -0.015 | [16] 0.207

CWC25 (UniProt Q9NXE8)
inactive: [1] -0.042 | [3] -0.148 | [18] 0.012 | [19] -0.341 | [5] -0.022 | [6] 0.061 | [7] -0.077 | [8] -0.035 | [9] 0.104 | [10] 0.225 | [11] -0.039 | [13] 0.282 | [20] 0.063 | [14] 0.536 | [15] -0.026 | [16] 0.169

CRCP (UniProt O75575)
inactive: [1] 0.013 | [2] 0.046 | [17] 0.106 | [3] -0.033 | [18] 0.009 | [19] -0.138 | [5] -0.066 | [6] 0.008 | [7] 0.031 | [8] -0.048 | [9] -0.075 | [10] 0.086 | [11] 0.015 | [13] 0.023 | [20] 0.046 | [14] -0.052 | [15] 0.054 | [16] 0.063

CSNK1A1 (UniProt P48729)
inactive: [1] 0.007 | [2] -0.105 | [3] 0.077 | [4] 0.019 | [18] 0.081 | [19] -0.005 | [6] 0.049 | [7] -0.005 | [8] -0.099 | [9] 0.084 | [10] -0.049 | [11] 0.084 | [12] -0.034 | [13] -0.077 | [20] -0.068 | [14] 0.027 | [15] 0 | [16] -0.01

CYBC1 (UniProt Q9BQA9)
inactive: [1] -0.096 | [2] -0.102 | [17] 0.06 | [4] -0.017 | [18] 0.036 | [19] -0.075 | [5] 0.032 | [6] -0.018 | [7] 0.061 | [8] -0.031 | [9] 0.007 | [10] -0.055 | [11] -0.169 | [12] 0.009 | [13] 0.092 | [20] 0.038 | [14] 0.073 | [15] -0.081 | [16] 0.064

CRELD1 isoform 2 (UniProt Q96HD1)
inactive: [1] -0.012 | [2] 0.005 | [17] 0 | [3] 0.052 | [4] 0.027 | [18] 0.016 | [19] -0.035 | [5] 0.037 | [6] 0.023 | [7] 0.193 | [8] -0.022 | [9] 0.008 | [11] -0.023 | [12] 0.031 | [13] 0.045 | [20] 0.048 | [15] -0.066 | [16] -0.029

CTDSP1 (UniProt Q9GZU7)
inactive: [1] -0.018 | [2] 0.027 | [4] -0.051 | [10] -0.091 | [11] 0.125 | [12] -0.051 | [13] -0.217 | [14] -0.065 | [16] -0.014

CROCC2 (UniProt H7BZ55)
inactive: [17] 0.025 | [4] 0.11 | [18] 0.131 | [19] 0.184 | [6] 0.028 | [8] -0.013 | [9] -0.121 | [10] -0.077 | [12] -0.062 | [20] 0.01 | [14] 0.041 | [15] -0.054

CXCL14 (UniProt O95715)
inactive: [3] -0.235 | [18] -0.034 | [19] 0.066 | [9] -0.083 | [20] -0.021 | [15] -0.649

CS (UniProt F8VU34)
inactive: [2] 0.376 | [17] -0.13 | [4] 0.113 | [6] -0.345 | [8] -0.352 | [9] -0.045 | [12] -0.126 | [15] 0.016

Two entries drawn at random from the list so far:
CXCL14 (UniProt O95715)
inactive: [3] -0.235 | [18] -0.034 | [19] 0.066 | [9] -0.083 | [20] -0.021 | [15] -0.649

CRELD1 isoform 2 (UniProt Q96HD1)
inactive: [1] -0.012 | [2] 0.005 | [17] 0 | [3] 0.052 | [4] 0.027 | [18] 0.016 | [19] -0.035 | [5] 0.037 | [6] 0.023 | [7] 0.193 | [8] -0.022 | [9] 0.008 | [11] -0.023 | [12] 0.031 | [13] 0.045 | [20] 0.048 | [15] -0.066 | [16] -0.029
